Data set [1] can be described thus: Lignin removal from sorghum by IL/DSIL pretreatment (acetyl bromide lignin assay). More on the design: species or system Sorghum bicolor. As to conditions: sorghum 20 wt %, IL/DSIL 80 wt %, 140° C., 3 h.
Data set [2] can be described thus: Enzymatic hydrolysis of IL/DSIL pretreated sorghum (sugar release). Conditions: sorghum 20 wt %, IL/DSIL 80 wt %, 140° C., 3 h; saccharification 10 mg enzyme per g, 50° C., 72 h. More on the design: species or system Sorghum bicolor.
A short description of data set [3]: Pine pretreatment with IL followed by enzymatic hydrolysis (sugar yields). As to conditions: pine 20 wt %, IL 80 wt %, 140° C., 3 h, saccharification 10 mg protein per g biomass, 50° C., 72 h. More on the design: species or system Pinus radiata.

`CC(=O)[O-].C[N+](C)(C)CCO` [[Ch][Ace], cholinium acetate]: in data set [1], the “delignification (lignin removal) after pretreatment” value is 45%. For the same molecule, the “glucose release from pretreated sorghum after enzymatic hydrolysis” value (“glucose release from pretreated sorghum” for short) in data set [2] was 85.2%.
For the molecule `C[N+](C)(C)CCO.NCCCC[C@H](N)C(=O)[O-]` [[Ch][Lys], cholinium lysinate], in data set [1], the “delignification (lignin removal) after pretreatment” value came to 77.4%. For the same molecule, the “glucose yield after enzymatic hydrolysis of pretreated pine” value is recorded as 51.6% in data set [3] and 49% in data set [3] (listed as [Chol][Lys]). For the same molecule, the “xylose yield after enzymatic hydrolysis of pretreated pine” value in data set [3] came to 46.3%; in data set [3] (listed as [Chol][Lys]) it was 43%. For the same molecule, the “glucose release from pretreated sorghum” value in data set [2] worked out at 98.2%.
On to `CCCCCCCC(=O)[O-].C[N+](C)(C)CCO` [[Ch][Oct], cholinium octanoate], for which the “glucose release from pretreated sorghum” value in data set [2] is 41.1%.
Take `CCCCCCCCCCCCCCCC(=O)[O-].C[N+](C)(C)CCO` [[Ch][Pal], cholinium palmitate]: the “glucose release from pretreated sorghum” value in data set [2] stood at 37.9%.

For the origin of these results see US20220195666A1, “USE OF A PLURALITY OF SALT IONIC LIQUIDS IN THE PRETREATMENT OF BIOMASS” (priority 2020, published 2022).
